Measurements: patent US9809624B2 (INSERM (Institut National de la Sante et de la Recherche …, priority 2009, dated 2017)

Columns and labels:
[1] = general procedure: Fmoc solid-phase peptide synthesis; Wang resin (DOTA-LB119); TBTU/HOBt/DIPEA (DTPA coupling); DIC/HOBt (Fmoc-Ahx); HATU (DOTA(OtBu)3); conditions: whole synthesis, HPLC on Nucleosil C18 or Discovery BIO SUPELCO Wide Pore column, water/CH3CN (0.05% TFA) gradient
[2] = peptide made by a vendor (Fmoc solid-phase peptide synthesis; Wang resin (DOTA-LB119); TBTU/HOBt/DIPEA (DTPA coupling); DIC/HOBt (Fmoc-Ahx); HATU (DOTA(OtBu)3)); conditions: conjugation step; for final HPLC purity: HPLC on Nucleosil C18 or Discovery BIO SUPELCO Wide Pore column, water/CH3CN (0.05% TFA) gradient

Row | Substance | final HPLC purity [1] | conjugation yield [2] | final HPLC purity [2]
1 | Ac-Lys(Ahx-DOTA)-Pro-Me-Arg-Arg-Pro-Dmt-Tle-Leu-OH | >95% |  | 
2 | Ac-Lys(DOTA)-Pro-Me-Arg-Arg-Pro-Tyr-Tle-Leu-OH |  | approximately 85% | 98%
3 | Ac-Lys(DTPA)-Pro-Arg-Arg-Pro-Tyr-Ile-Leu-OH |  |  | >99%
4 | Ac-Lys(DTPA)-Pro-Arg-Arg-Pro-Tyr-Tle-Leu-OH |  |  | >97%
5 | Ac-Lys(DTPA)-Pro-Me-Arg-Arg-Pro-Tyr-Tle-Leu-OH |  |  | >99%
6 | DTPA-Ahx-Arg-Me-Arg-Pro-Dmt-Tle-Leu-OH | 97% |  | 
7 | DTPA-Ahx-Arg-Me-Arg-Pro-Tyr-Tle-Leu-OH | 92% |  | 
8 | DTPA-Arg-Arg-Pro-Tyr-Ile-Leu-OH | >96% |  | 
9 | DTPA-Lys-Ψ(CH2-NH)-Arg-Pro-Tyr-Ile-Leu-OH | 95% |  | 
10 | DTPA-Lys-Ψ(CH2-NH)-Arg-Pro-Tyr-Tle-Leu-OH | 97% |  | 
